# Results taken from PMC10015162.
# The chains behind the UniProt entries cited, without tags or fusion partners.
# UniProt Q39011: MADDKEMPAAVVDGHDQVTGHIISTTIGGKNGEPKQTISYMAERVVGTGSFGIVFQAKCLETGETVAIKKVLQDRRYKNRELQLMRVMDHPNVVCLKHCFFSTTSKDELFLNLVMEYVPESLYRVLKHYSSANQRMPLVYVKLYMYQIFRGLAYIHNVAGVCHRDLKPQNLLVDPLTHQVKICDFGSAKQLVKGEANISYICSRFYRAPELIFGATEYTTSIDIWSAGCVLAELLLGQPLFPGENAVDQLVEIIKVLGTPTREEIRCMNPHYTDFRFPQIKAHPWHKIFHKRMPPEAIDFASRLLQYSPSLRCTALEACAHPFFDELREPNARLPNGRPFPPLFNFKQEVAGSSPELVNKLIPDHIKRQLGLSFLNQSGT
# No constants are given. Whether binding was seen depends on the method and setting. In cells and extracts the contact can be indirect. A yes stands for co-enrichment or nearness to the bait. Other partners may have been found.
# Target: BIN2-YFP-TbID (full-length BIN2 fused with YFP and TurboID), in transgenic Arabidopsis (Arabidopsis thaliana) (UniProt Q39011)
# Experiment: proximity labelling; TbPL-MS: transgenic Arabidopsis seedlings with BIN2-YFP-TbID against YFP-YFP-TbID control, 14N/15N labelling, 50 µM biotin for 3 h, desalting, streptavidin beads, on-bead digestion, LC-MS/MS; BIN2-proximal: ratio >=3 in at least three of four replicates
row,Binder,binding
1,"NONPHOTOTROPIC HYPOCOTYL3 (protein, UniProt Q9FMF5 1-746) MMWESESDGGVGVGGGGGREYGDGVLSSNKHGGVKTDGFELRGQSWFVATDIPSDLLVKIGDMNFHLHKYPLLSRSGKMNRLIYESRDPDPTILILDDLPGGPEAFELASKFCYGVPVDLTATNISGLRCAAEYLEMTEDLEEGNLIFKTEAFLSYVVLSSWRDSILVLKSCEKLSPWAENLQIVRRCSESIAWKACSNPKGIRWAYTGKAPSPSTTNFAGSSPRWNESKDSSFYCSPSRNTNSQPVPPDWWFEDVSILRIDHFVRVITAIKVKGMRFELLGAVIMHYAGKWLPGLIKEGGVAIAPAMSSAIGGGLGLGGDEMSISCGSNSSGGSSGPDWKGGLHMVLSAGKTNGHQDSVACLAGLGISPKDQRMIVESLISIIPPQKDSVTCSFLLRLLRAANMLKVAPALITELEKRVGMQFEQATLQDLLIPGYNNKGETMYDVDLVQRLLEHFLVQEQTEGSSPSRMSPSPSQSMYADIPRGNNNNGGGGGGNNQNAKMRVARLVDSYLTEVARDRNLPLTKFQVLAEALPESARTCDDGLYRAIDSYLKAHPTLSEHERKRLCRVMDCQKLSMDACMHAAQNERLPLRVVVQVLFSEQVKISNALANTSLKESTTLGEAMGTYQPMIPNRKTLIEATPQSFQEGWAAAKKDINTLKFELETVKTKYVELQNEMEVMQRQFEKTGKVKNTPSSSAWTSGWKKLSKLTKMSGQESHDISSGGEQAGVDHPPPRKPRRWRNSIS",binds
2,"AtSK12 (BIN2 homolog) (enzyme, UniProt P43289 1-409) MASVGIEPSAAVRESTGNVTDADRLPEEMKDMKIQDDKEMEATIVNGNVTETGHIIVTTIGGRNGQPKQTISYMAERVVGHGSFGVVFQAKCLETGETVAIKKVLQDRRYKNRELQTMRLLDHPNVVSLKHCFFSTTEKDELYLNLVLEYVPETVHRVIKHYNKLNQRMPLVYVKLYTYQIFRSLSYIHRCIGVCHRDIKPQNLLVNPHTHQVKLCDFGSAKVLVKGEPNISYICSRYYRAPELIFGATEYTTAIDVWSAGCVLAELLLGQPLFPGESGVDQLVEIIKVLGTPTREEIKCMNPNYTEFKFPQIKAHPWHKIFHKRMPPEAVDLVSRLLQYSPNLRCAALDSLVHPFFDELRDPNARLPNGRFLPPLFNFKPHELKGVPVEMVAKLVPEHARKQCPWLSL",binds
3,"At5g18610 (protein, UniProt Q1PDV6 1-513) MSGCLPCFGSSAKDAASKDSVKKELSAKDGSVTQSHHISLDKSKSRRGPEQKKELTAPKEGPTAHIAAQTFTFRELAAATKNFRPECLLGEGGFGRVYKGRLETTGQIVAVKQLDRNGLQGNREFLVEVLMLSLLHHPNLVNLIGYCADGDQRLLVYEYMPLGSLEDHLHDLPPDKEPLDWSTRMTIAAGAAKGLEYLHDKANPPVIYRDLKSSNILLGDGYHPKLSDFGLAKLGPVGDKTHVSTRVMGTYGYCAPEYAMTGQLTLKSDVYSFGVVFLELITGRKAIDNARAPGEHNLVAWARPLFKDRRKFPKMADPSLQGRYPMRGLYQALAVAAMCLQEQAATRPLIGDVVTALTYLASQTFDPNAPSGQNSRSGSGPPFIRTRDDRRSLGDGSSLDSPAETRSRLGSPATHKNSPDYRRRDMVREVNAGSEGGSETGGGSGRKWGLSDLEGQESQRGSPASVGRSSRGTPRNRDLDRERAVAEAKVWGENWRERKRATNGPGSFDSTND",binds
4,"At3g20250 (protein, UniProt Q9LJX4 1-961) MTTTQSAMRMVEGDHIKNWQASSDSGIFGSLDMAVEDLGFLMKRNRLDSGDQTGKFPSRSESAPPSMEGSFAALRNLLKQQEGSSSEVLSRAIENYDSEEEIRSDPAYVAYYLSNINLNPRLPPPLISRENQHLLRHFGDNNQSPTTSWDNMGIRSSLHSSRTALSTHREEPEDEASSGEQQSYASLAGRRKSIADMIQEDFPLTLSSVFKRPHSAGNRPIAQDIHAISSDTSSEHARRLPESDINSVNLLRETDSLSSDAIASEDPFTTDLASQSFTNAQTERLNARQASHEDNNLSVFGASPPSSVASRMRRNQEDQQSQGRRMPPQYTPSSYQVQASSPQQMSYPRIGGTQDMMQSLPKIATGEVHSTFQSPHGLAPPPMYTSTAAYMTSLSPFYHQNFQSSGMFVPQYNYGGYPPASGIVPQYMSGYPSHEATVPMPYDISSTSSGYNNPRLLPGVSSSGQNIPSLVDPFQLQYFQQAQVDAYAPPFQSSTDSFGQKDQQAVGYMANHEPLNSPLSPGYGLQSPRHMGNYFAVPPGVRVMPQYPGSPLASPVMPSSPVGGMMSHFGRRSETRYHQQGPSRNTGIYPGGWQGNRGGASSIVDDLKRHSFLDELKSPNARKLELSDIAGRVVEFSVDQHGSRFIQQKLEHCSDEEKASVFSEVLPQASKLMTDVFGNYVIQKFIEHGTPAQREELVKQLAGQMVSLSLQMYGCRVIQKALEVIDVDQKTELIRELDGNVLKCVRDQNGNHVIQKCIESMPAGRIGFVIAAFRGQVATLSTHPYGCRVIQRILEHCSDDEETHCIIDEILESAFALAHDQYGNYVTQHVLERGKPDERRQIIEKLTGNVVQMSQHKYASNVVEKCLEHADSTEREFLIEEIMGKSEEDNHLLAMMKDQFANYVVQKVLEISKDQQREILVQRMKIHLQSLRKYTYGKHIVARFEQLFGEESEVSEEGTEG",binds
5,"At5g11710 (protein, UniProt Q8VY07 1-560) MDFMKVFDQTVREIKREVNLKVLKVPEMEQKVLDATDNEPWGPHGTALAEIAQATKKFSECQMVMSVLWTRLSETGKDWRYVYKALAVIDYLISNGSERAVDEIIEHTYQISSLTSFEYVEPNGKDVGINVRKKAENIVALLNNKEKISEIRDKAVANRNKYVGLSSTGITYKSGSSASFGGSFQSGSSNFDSYKDRDSREDKNDYESFQKSRRGVKTEEQSYTSKKSFSRYGSTDHDNLSSGKKSPDSAKHRSYVSAAPSNNDDDFDDFDPRGTSSNKPSTGSANQVDLFGGDLIGDFLDSGPTETSSTNNNENFQEADLFADAAFVSASAQGAEFGSQTQKQVDLFSASEPSVTVSSAPPTVDLFASSESVVSPEAKISIPESMATPNIVDPFAAVPMDNFDGSDPFGAFTSHSASVSTGPQAPSVHGSATNTTSPLSFADSKPQHLQKKDPFQVKSGIWADSLSRGLIDLNITAPKKASLADVGVVGDLSNEDGNKASAASYYSGWSMGAGSGLGKTGLYSTQQQQQQQQQQQAPDISDDFFSSLSNQRYQSGGFKQ",binds
6,"At5g03040 (protein, UniProt Q93ZH7 1-461) MGKKAKWFSSVKKAFSPDSKKSKQKLAEGQNGVISNPPVVDNVRQSSSSPPPALAPREVRVAEVIVERNRDLSPPSTADAVNVTATDVPVVPSSSAPGVVRRATPTRFAGKSNEEAAAILIQTIFRGYLARRALRAMRGLVRLKLLMEGSVVKRQAANTLKCMQTLSRVQSQIRARRIRMSEENQARQKQLLQKHAKELAGLKNGDNWNDSIQSKEKVEANLLSKYEATMRRERALAYSYSHQQNWKNNSKSGNPMFMDPSNPTWGWSWLERWMAGRPLESSEKEQSNSNNDNAASVKGSINRNEAAKSLTRNGSTQPNTPSSARGTPRNKNSFFSPPTPSRLNQSSRKSNDDDSKSTISVLSERNRRHSIAGSSVRDDESLAGSPALPSYMVPTKSARARLKPQSPLGGTTQENEGFTDKASAKKRLSYPTSPALPKPRRFSAPPKVESGGVTVTNGAGS",binds
7,"At5g05970 (protein, UniProt B3H5K9 1-782) MMSNLVEPSWRLLAASGGDTVKLFDVSADSGDPCVLSYTPSPGCAVNSVKWNHTNLVVASTGEDKKISLWRKNGQSLGTVPVTGKDGGDSAEECLSAISFSKKGSRYICSGGTGQIVKIWDLQRKLCIKKLKGHTSTITGVMYNCKDEHLASVSVGGDLIVHNLASGARATELKDPNGQVLRLLDYSRSSRHLLVTAGDDGTVHLWDTTGRSPKMSWLKQHSAPTAGVCFSPSNEKIIASVGMDKKLYTYDSGSRRSSSCIAYEAPFSSLAFGDNGYILVAGTSNGRVVFYDIRGKPQPVTVLHAFSNSEDVTSLSWQTSKPVIVNEKNYTSEMALLGSTVEDSVVIPDPLPSTTPSASQSAMAPGSRGVSASTVNASSVEQTPNRNHLWPSGPLGRLHALRANDSYNDDMGVFSPIIDVSSVEKWADSEGYNNKDHLVVDNKPSSLLFPSSSKGYSFGDNGSKEHPIFDWKPSSTSKQDDPRAAFSSFGSITPTASSKSEDSALTPPEAWGGDKFSEKFNQLANEKFSDKFSHLHAPSRLAVSSTGASTSGSMFSSSRDFPLSHGQTNFANASLEFPRIRDFSSTFETSSTQTDNNLPSSPLFTKGITAPGNIDSLRLSPNFTRRFSTYAERISTTSSFSDGASLSLGGSPKIKKTGSETREEVLNHLLARPETVVATEAGAMPLMNQGGLKQSQTDQQQVMGSSNFTLQLFQRTLEGTLDSFQNSIHDDVRNLHIEILRQFHMHEMEMSKVLSSILENQAEQMKELKLLRKENQELRQRL",binds
8,"At1g16860 (protein, UniProt Q9FZ45 1-474) MGSRYPSHQLSNGLFVSGRPEQPKERAPTMSAVAMPYTGGDIKRSGELGKMFDIPADGTKSRKSGPIPGAPSRSGSFAGTAQSGPGAPMATGRMSGSLASAGSVSMKKTNSGPLSKHGEPLKKSSGPQSGGVTRQNSGSIPILPATGLITSGPITSGPLNSSGAPRKVSGPLDSSGLMKSHMPTVVHNQAVTTLGPEDDFSCLKSFPKPVLWLVVLIFIMGFLAGGFILGAVHNPILLVVVAILFTVVAALFIWNICWGRRGITDFIARYPDADLRTAKNGQHVKVTGVVTCGNVPLESSFHRVPRCVYTSTCLYEYRGWGSKPANSSHRHFTWGLRSSERHVVDFYISDFQSGLRALVKTGSGAKVTPLVDDSVVIDFKQGSEQVSPDFVRWLGKKNLTSDDRIMRLKEGYIKEGSTVSVIGVVQRNDNVLMIVPSSEPLAAGWQWRRCTFPTSLEGIVLRCEDSSNVDAIPV",binds
9,"MILDEW … LOCUS O 2 (protein, UniProt Q9SXB6 1-573) MADQVKERTLEETSTWAVAVVCFVLLFISIVLEHSIHKIGTWFKKKHKQALFEALEKVKAELMLLGFISLLLTIGQTPISNICISQKVASTMHPCSAAEEAKKYGKKDAGKKDDGDGDKPGRRLLLELAESYIHRRSLATKGYDKCAEKGKVAFVSAYGIHQLHIFIFVLAVVHVVYCIVTYAFGKIKMRTWKSWEEETKTIEYQYSNDPERFRFARDTSFGRRHLNFWSKTRVTLWIVCFFRQFFGSVTKVDYLALRHGFIMAHFAPGNESRFDFRKYIQRSLEKDFKTVVEISPVIWFVAVLFLLTNSYGLRSYLWLPFIPLVVILIVGTKLEVIITKLGLRIQEKGDVVRGAPVVQPGDDLFWFGKPRFILFLIHLVLFTNAFQLAFFAWSTYEFNLNNCFHESTADVVIRLVVGAVVQILCSYVTLPLYALVTQMGSKMKPTVFNDRVATALKKWHHTAKNETKHGRHSGSNTPFSSRPTTPTHGSSPIHLLHNFNNRSVENYPSSPSPRYSGHGHHEHQFWDPESQHQEAETSTHHSLAHESSEPVLASVELPPIRTSKSLRDFSFKK",binds
